Test results: patent US6218431A, “Substituted biphenyls” (Bayer Corporation, priority 1997, dated 2001)
pIC50: −log10 of the molar value. The match of structure and compound is tentative.

Sequences of proteins named here, by UniProt entry; tags and fusion partners are left off. Residues count along the entry.
UniProt P47871, 26-477 limits assumed: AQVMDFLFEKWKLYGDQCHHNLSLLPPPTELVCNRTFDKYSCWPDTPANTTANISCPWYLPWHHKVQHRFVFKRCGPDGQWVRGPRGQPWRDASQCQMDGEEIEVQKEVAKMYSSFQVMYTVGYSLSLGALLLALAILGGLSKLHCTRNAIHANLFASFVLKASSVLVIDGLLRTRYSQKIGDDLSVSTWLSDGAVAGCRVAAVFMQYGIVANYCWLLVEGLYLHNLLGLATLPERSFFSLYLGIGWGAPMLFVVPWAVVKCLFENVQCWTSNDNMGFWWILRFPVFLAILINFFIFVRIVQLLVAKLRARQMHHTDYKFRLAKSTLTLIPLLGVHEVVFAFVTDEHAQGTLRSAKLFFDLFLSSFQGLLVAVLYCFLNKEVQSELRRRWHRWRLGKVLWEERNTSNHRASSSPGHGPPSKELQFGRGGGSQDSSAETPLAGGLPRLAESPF

Target: glucagon receptor (Homo sapiens, UniProt P47871)
Test: glucagon receptor binding assay (125I-glucagon, CHO-HGR membranes)
Conditions: 60 min at room temperature

Row | Structure (SMILES) | pIC50
1 | CCCCCc1c(CNc2cccc(OC)c2)nc(C(C)C)c(CO)c1-c1ccc(F)cc1 | 5.15
2 | CSc1ccc(SCc2c(C(C)C)cc(C(C)C)c(C(C)O)c2-c2ccc(F)cc2)cc1 (single isomer, unassigned) | 6.40
3 | CCCC=Cc1c(C(C)C)nc(C(C)C)c(CO)c1-c1ccsc1 | 4.92
4 | CCCCCc1c(C(C)C)nc(C(C)C)c(CO)c1-c1ccc(F)cc1F | 4.98
5 | CCCCCc1c(C(O)c2ccccc2)nc(C(C)C)c(CO)c1-c1ccc(F)cc1 (centres unmarked) | 4.72

Results, then the compound that gave them:

Row | pIC50 | Structure (SMILES)
6 | 5.89 | CCCCCc1c(C(C)(C)OCC)nc(C(C)C)c(CO)c1-c1ccc(F)cc1
7 | 5.74 | CCCCCc1c(COCc2ccccc2)nc(C(C)C)c(CO)c1-c1ccc(F)cc1
8 | 5.89 | CCCCCc1c(C(C)(C)OC)nc(C(C)C)c(CO)c1-c1ccc(F)cc1
